The results in this text go back to the supplement of paper PMC12067093, “Discovery and optimisation of a covalent ligand for TRIM25 and its application to targeted protein ubiquitination” (Chemical Science, 2025).

Chains of the proteins cited; added tags and fusions are not shown. Lines headed by an entry give the natural chain unless they say otherwise; changes in a name come on top.
UniProt Q8IZ73: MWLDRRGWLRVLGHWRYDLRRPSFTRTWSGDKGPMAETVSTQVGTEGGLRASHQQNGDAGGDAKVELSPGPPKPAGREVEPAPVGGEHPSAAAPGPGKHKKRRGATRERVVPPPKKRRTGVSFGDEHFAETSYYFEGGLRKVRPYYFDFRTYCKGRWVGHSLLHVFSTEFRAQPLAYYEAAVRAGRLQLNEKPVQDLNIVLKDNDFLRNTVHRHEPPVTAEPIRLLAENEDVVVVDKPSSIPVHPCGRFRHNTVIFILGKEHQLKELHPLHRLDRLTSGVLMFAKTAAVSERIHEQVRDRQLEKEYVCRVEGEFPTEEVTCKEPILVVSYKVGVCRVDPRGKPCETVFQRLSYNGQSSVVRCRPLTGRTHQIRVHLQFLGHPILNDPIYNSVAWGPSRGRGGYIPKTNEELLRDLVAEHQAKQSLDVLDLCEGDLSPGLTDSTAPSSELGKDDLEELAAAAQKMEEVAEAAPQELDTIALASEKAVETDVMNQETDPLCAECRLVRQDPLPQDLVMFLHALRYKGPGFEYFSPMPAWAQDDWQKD
UniProt Q96T51: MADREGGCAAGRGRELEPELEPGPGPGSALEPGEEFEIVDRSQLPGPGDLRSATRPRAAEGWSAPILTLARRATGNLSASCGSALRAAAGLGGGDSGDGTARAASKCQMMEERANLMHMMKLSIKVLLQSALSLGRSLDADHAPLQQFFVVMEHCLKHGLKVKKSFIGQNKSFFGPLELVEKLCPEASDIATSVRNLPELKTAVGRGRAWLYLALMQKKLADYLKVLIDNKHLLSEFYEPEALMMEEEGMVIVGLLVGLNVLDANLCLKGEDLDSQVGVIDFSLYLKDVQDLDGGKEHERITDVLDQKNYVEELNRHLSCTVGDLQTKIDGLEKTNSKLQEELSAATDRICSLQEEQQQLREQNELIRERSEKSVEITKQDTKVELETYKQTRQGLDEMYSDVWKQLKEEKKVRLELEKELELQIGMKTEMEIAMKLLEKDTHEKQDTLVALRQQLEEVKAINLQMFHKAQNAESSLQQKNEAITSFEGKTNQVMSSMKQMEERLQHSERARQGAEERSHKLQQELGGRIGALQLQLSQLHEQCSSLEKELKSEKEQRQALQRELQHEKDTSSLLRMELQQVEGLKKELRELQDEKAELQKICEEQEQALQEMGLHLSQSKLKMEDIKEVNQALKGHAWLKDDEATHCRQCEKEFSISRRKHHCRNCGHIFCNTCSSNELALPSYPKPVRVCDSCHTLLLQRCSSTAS
UniProt Q14684: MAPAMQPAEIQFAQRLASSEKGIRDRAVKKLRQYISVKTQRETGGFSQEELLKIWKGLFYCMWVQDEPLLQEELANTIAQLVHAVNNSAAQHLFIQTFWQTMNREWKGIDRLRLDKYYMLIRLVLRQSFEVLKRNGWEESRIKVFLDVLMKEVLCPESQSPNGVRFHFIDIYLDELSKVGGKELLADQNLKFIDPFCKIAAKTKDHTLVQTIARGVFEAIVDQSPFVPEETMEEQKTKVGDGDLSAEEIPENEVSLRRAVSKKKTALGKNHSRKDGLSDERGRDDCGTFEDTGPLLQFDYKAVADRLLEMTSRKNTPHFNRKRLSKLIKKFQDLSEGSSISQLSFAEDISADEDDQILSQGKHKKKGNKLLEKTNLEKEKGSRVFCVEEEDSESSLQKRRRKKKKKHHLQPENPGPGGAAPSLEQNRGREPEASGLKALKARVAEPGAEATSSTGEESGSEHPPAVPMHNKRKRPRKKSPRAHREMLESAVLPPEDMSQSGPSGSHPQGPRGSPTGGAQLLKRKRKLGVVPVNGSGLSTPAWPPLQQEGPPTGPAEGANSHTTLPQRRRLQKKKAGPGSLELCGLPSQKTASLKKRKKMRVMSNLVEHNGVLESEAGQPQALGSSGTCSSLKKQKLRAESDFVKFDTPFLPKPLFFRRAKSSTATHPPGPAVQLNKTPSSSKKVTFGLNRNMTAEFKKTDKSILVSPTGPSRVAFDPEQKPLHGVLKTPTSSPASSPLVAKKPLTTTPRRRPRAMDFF
UniProt P23921: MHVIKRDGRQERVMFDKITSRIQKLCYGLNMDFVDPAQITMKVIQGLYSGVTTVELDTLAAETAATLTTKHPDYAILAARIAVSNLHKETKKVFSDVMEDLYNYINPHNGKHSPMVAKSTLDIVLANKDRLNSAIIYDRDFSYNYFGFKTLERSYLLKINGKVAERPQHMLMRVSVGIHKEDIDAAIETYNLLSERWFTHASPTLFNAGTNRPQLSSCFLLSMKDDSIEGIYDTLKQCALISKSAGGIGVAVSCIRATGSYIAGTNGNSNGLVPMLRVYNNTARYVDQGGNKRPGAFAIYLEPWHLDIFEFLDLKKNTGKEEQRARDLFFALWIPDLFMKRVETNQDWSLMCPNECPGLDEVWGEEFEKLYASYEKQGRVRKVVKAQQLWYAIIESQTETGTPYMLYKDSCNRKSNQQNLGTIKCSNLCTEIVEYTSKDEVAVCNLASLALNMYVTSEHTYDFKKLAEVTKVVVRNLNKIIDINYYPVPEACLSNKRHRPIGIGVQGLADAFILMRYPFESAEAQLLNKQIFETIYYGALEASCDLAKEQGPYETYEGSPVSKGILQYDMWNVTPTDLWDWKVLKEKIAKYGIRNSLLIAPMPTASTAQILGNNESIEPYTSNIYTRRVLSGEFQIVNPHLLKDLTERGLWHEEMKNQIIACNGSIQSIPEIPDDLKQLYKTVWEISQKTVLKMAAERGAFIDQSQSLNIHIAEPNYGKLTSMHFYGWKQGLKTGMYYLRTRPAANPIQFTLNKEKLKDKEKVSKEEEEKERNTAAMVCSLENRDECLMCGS
UniProt Q8IVG5: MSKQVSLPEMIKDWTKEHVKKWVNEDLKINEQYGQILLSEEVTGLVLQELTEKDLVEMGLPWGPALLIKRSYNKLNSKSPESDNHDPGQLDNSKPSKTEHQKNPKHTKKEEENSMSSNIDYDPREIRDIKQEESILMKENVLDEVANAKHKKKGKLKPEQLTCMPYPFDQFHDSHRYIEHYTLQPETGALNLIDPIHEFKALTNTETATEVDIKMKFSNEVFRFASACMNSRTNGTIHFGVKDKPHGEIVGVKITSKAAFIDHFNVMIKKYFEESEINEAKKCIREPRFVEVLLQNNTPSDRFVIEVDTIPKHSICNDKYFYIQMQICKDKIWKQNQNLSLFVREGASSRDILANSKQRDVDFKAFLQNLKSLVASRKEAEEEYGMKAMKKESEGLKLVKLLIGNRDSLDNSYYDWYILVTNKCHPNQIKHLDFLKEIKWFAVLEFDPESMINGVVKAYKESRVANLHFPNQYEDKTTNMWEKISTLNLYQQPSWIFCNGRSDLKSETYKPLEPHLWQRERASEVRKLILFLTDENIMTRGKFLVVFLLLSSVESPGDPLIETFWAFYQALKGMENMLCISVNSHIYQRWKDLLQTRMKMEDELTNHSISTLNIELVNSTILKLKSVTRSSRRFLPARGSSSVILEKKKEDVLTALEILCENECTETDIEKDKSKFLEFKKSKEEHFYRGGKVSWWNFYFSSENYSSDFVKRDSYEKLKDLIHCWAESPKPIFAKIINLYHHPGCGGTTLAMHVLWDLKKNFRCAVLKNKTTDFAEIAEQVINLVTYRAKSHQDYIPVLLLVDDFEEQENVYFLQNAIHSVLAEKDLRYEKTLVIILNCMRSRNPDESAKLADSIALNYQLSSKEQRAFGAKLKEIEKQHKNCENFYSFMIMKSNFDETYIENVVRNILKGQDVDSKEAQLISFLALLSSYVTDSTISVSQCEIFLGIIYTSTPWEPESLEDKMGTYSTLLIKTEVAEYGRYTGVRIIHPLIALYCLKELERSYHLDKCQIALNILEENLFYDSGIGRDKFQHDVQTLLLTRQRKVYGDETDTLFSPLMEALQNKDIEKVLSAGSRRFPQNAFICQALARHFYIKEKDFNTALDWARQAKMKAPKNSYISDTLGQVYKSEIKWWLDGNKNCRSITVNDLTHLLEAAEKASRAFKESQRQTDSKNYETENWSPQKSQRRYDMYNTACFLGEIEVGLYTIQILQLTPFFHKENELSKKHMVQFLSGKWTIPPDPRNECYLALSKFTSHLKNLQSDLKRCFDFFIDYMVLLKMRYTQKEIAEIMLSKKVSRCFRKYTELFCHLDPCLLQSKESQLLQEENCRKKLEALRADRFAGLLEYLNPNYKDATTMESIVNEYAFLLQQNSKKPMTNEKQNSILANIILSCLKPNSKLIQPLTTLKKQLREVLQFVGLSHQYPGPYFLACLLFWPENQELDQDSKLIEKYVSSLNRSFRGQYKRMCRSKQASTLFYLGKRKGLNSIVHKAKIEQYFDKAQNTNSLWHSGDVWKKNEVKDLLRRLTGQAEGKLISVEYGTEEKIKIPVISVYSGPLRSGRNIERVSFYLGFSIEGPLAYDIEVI
UniProt Q9BY42: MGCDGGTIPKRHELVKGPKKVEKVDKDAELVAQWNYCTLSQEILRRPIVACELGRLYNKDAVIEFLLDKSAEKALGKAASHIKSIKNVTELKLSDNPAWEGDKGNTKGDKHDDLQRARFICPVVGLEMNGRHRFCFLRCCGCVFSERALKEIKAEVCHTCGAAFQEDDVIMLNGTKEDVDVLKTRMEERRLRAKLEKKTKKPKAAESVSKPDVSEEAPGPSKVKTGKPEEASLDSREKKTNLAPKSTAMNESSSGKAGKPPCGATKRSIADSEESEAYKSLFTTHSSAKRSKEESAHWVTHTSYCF
UniProt Q9UBE0: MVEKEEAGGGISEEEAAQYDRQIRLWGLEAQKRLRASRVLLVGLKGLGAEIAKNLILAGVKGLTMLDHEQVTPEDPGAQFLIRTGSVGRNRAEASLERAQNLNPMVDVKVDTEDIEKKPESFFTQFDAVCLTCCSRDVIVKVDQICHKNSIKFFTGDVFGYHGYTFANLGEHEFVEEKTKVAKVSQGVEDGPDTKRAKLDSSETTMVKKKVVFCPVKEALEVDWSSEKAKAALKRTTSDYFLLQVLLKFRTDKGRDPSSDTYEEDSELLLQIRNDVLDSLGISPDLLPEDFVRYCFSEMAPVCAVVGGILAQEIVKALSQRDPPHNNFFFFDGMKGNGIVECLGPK
UniProt Q9Y3Z3: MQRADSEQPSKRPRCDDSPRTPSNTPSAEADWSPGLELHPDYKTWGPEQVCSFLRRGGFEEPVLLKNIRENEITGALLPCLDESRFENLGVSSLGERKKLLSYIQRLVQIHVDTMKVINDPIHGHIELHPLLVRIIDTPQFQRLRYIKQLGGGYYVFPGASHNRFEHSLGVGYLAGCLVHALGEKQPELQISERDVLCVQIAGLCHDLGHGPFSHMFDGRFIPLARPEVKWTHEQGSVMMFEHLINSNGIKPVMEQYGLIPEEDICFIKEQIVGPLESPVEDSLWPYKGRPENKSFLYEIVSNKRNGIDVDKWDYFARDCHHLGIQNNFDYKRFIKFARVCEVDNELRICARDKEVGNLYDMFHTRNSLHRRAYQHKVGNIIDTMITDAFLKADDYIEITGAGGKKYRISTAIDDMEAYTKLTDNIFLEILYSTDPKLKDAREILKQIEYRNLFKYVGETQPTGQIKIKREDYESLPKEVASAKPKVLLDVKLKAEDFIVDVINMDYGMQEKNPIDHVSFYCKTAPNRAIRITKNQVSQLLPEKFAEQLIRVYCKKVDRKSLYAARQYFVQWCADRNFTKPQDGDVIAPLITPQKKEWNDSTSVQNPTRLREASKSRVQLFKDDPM
UniProt P28702: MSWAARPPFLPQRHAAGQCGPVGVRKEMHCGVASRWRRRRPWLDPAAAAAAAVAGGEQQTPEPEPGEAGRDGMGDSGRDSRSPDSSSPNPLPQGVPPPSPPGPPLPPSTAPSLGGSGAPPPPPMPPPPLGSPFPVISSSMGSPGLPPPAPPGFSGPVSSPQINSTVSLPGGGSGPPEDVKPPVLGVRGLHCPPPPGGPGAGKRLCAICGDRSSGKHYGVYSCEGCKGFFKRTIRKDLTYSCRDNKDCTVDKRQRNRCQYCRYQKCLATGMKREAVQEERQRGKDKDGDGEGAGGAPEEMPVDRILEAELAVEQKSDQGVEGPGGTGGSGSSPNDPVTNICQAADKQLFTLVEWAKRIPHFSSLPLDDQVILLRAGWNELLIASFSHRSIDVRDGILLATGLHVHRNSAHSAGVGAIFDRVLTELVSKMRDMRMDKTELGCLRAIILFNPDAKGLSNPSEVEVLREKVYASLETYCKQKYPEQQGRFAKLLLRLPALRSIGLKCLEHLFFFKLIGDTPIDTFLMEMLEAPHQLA
UniProt Q15050: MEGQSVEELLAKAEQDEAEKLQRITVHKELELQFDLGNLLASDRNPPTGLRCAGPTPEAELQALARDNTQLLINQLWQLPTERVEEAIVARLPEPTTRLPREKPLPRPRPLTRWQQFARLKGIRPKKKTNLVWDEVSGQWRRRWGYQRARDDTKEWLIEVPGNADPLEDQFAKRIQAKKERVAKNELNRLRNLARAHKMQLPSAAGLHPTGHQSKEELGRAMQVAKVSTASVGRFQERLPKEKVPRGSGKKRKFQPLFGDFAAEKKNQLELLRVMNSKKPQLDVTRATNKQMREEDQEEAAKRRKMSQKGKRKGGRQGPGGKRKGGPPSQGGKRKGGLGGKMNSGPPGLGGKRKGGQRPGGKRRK

The list shows a part of the results.

Compound in the test: Cc1cc(ccc1-c1ccccc1)C(=O)N1CCCN(CC1)C(=O)CCl [compound 10]
Nature of the test: probe-labelled cysteine peptide fold change vs DMSO (competition) (log2 fold change); higher = less target engagement (more negative = stronger competition). Particulars: THP-1, incubation time: 4 h.
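Note: competitive profiling in live THP-1 cells: cysteine peptides tagged with an iodoacetamide desthiobiotin (IA-DTB) probe, intensity after compound treatment relative to DMSO-treated cells.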

Consider “RPUSD2_Q8IZ73_321_VEGEFPTEEVTCK (UniProt Q8IZ73)”, for which the “probe-labelled cysteine peptide fold change” value by setting is: (10 µM) 0.108; (50 µM) 0.12.
The corresponding values for “RUFY1_Q96T51_351_ICSLQEEQQQLREQNELIR (UniProt Q96T51)” are -0.177 and -0.651.
The corresponding values for “RSBN1L_Q6PCB5_10_AEPPSPVHCVAAAAPTATVSEK (UniProt Q6PCB5)” are 0.0789 and 0.104.
With “RRP12_Q5JTH9_423_FFGTAVTCLLSPHSQVLTAATQSLK (UniProt Q5JTH9)”, the “probe-labelled cysteine peptide fold change” value is -0.0901 (10 µM) and 0.231 (50 µM).
The corresponding values for “RPTOR_Q8N122_1168+1174_VQDIPTGADSCVTSLSCDSHR (UniProt Q8N122)” are -0.104 and 0.0969.
On the same counts, the results for “RRP1B_Q14684_583_AGPGSLELCGLPSQK (UniProt Q14684)” are -0.0155 and -0.108.
The corresponding values for “RUFY1_Q96T51_351_ICSLQEEQQQLR (UniProt Q96T51)” are 0.179 and 0.107.
For the target “RPUSD2_Q8IZ73_499+502_AVETDVMNQETDPLCAECR (UniProt Q8IZ73)”, the “probe-labelled cysteine peptide fold change” value (10 µM) is -0.0538 and the “probe-labelled cysteine peptide fold change” value (50 µM) amounted to 0.0709.
On the same counts, the results for “RPS14_P62263_31_EKKEEQVISLGPQVAEGENVFGVCHIFASFNDTFVHVTDLSGK (UniProt P62263)” are 0.0678 and -0.17.
On the same counts, the results for “RRM1_P23921_444_DEVAVCNLASLALNMYVTSEHTYDFKK (UniProt P23921)” are 0.31 and 0.109.
The corresponding values for “RPS27A_P62979_121_ECPSDECGAGVFMASHFDR (UniProt P62979)” are 0.0221 and -0.304.
For the target “SAMD9L_Q8IVG5_1085_RFPQNAFICQALAR (UniProt Q8IVG5)”, the “probe-labelled cysteine peptide fold change” value reads like this: (10 µM) 0.00751; (50 µM) 0.157.
On the same counts, the results for “RTFDC1_Q9BY42_37_DAELVAQWNYCTLSQEILR (UniProt Q9BY42)” are 0.285 and 0.0626.
The corresponding values for “SACS_Q9NZJ4_2255_GNSFKPETMFAATDLYTAEHQDIVCLLQPILNENSHSFR (UniProt Q9NZJ4)” are 0.086 and -0.196.
The corresponding values for “RPS3A_P61247_139_LFCVGFTK (UniProt P61247)” are -0.263 and 0.25.
Regarding “RPS8_P62241_182_LLACIASRPGQCGR (UniProt P62241)”, the “probe-labelled cysteine peptide fold change” value was -0.207 (10 µM) and -0.296 (50 µM).
Consider “RUVBL1_Q9Y265_94_VPFCPMVGSEVYSTEIK (UniProt Q9Y265)”, for which the “probe-labelled cysteine peptide fold change” value was -0.0483 (10 µM) and -0.0862 (50 µM).
The corresponding values for “SACS_Q9NZJ4_2869_AFCFLPLSLETGLPFHVNGHFALDSAR (UniProt Q9NZJ4)” are -0.0964 and 0.104.
Turning to “RTFDC1_Q9BY42_3_GCDGGTIPK (UniProt Q9BY42)”, the “probe-labelled cysteine peptide fold change” value is, setting by setting: (10 µM) -0.146; (50 µM) -0.568.
The corresponding values for “RSPRY1_Q96DX4_190_LTEILNLNGEVACQDSSHPAK (UniProt Q96DX4)” are -0.116 and -0.341.
On to “RRP1B_Q14684_286_GRDDCGTFEDTGPLLQFDYK (UniProt Q14684)”, for which the “probe-labelled cysteine peptide fold change” value is 0.0197 (10 µM) and -0.0598 (50 µM).
The corresponding values for “RUFY1_Q96T51_692_VCDSCHTLLLQR (UniProt Q96T51)” are 0.0636 and -0.325.
As for “RPS15A_P62244_30_RQVLIRPCSK (UniProt P62244)”, the “probe-labelled cysteine peptide fold change” value is -0.47 (10 µM) and 0.254 (50 µM).
On the same counts, the results for “SAE1_Q9UBE0_134_VDTEDIEKKPESFFTQFDAVCLTCCSR (UniProt Q9UBE0)” are -0.00481 and -1.27.
On the same counts, the results for “SAMHD1_Q9Y3Z3_320_DCHHLGIQNNFDYK (UniProt Q9Y3Z3)” are -0.0843 and 0.165.
“RPS12_P25398_56_RQAHLCVLASNCDEPMYVK (UniProt P25398)”: the “probe-labelled cysteine peptide fold change” value runs as follows: (10 µM) -0.0352; (50 µM) -0.192.
The corresponding values for “RXRB_P28702_247_DCTVDKR (UniProt P28702)” are 0.0509 and -0.254.
On the same counts, the results for “RPS11_P62280_60_CPFTGNVSIR (UniProt P62280)” are -0.0938 and -0.00335.
The corresponding values for “RPS5_P46782_66_AQCPIVER (UniProt P46782)” are -0.181 and -0.176.
As to “RPS5_P46782_155_VNQAIWLLCTGAR (UniProt P46782)”, the “probe-labelled cysteine peptide fold change” value was determined as 0.0529 (10 µM) and 0.0612 (50 µM).
On the same counts, the results for “RPS12_P25398_50+56_RQAHLCVLASNCDEPMYVK (UniProt P25398)” are 0.0285 and -0.683.
Regarding “RPS11_P62280_60_KCPFTGNVSIR (UniProt P62280)”, the “probe-labelled cysteine peptide fold change” value runs as follows: (10 µM) -0.13; (50 µM) -0.17.
On the same counts, the results for “RUFY1_Q96T51_544_IGALQLQLSQLHEQCSSLEK (UniProt Q96T51)” are 0.216 and 0.0639.
On the same counts, the results for “SAMD9L_Q8IVG5_664_KKEDVLTALEILCENECTETDIEK (UniProt Q8IVG5)” are -0.0324 and -0.0811.
On the same counts, the results for “RRM1_P23921_779+787_NTAAMVCSLENRDECLMCGS (UniProt P23921)” are -0.321 and -0.786.
As for “RPUSD3_Q6P087_345_TLQCLGLR (UniProt Q6P087)”, the “probe-labelled cysteine peptide fold change” value reads like this: (10 µM) -0.321; (50 µM) -0.821.
The corresponding values for “RSF1_Q96T23_562_TALSSTESCTMKGEEK (UniProt Q96T23)” are -0.442 and -0.951.
The corresponding values for “SAE1_Q9UBE0_214_KVVFCPVK (UniProt Q9UBE0)” are -0.181 and -0.147.
For the target “RPS4X_P62701_41_LRECLPLIIFLR (UniProt P62701)”, the “probe-labelled cysteine peptide fold change” value is -0.176 (10 µM) and 0.274 (50 µM).
The corresponding values for “RRS1_Q15050_52_CAGPTPEAELQALAR (UniProt Q15050)” are -0.106 and -0.0527.
“SAMHD1_Q9Y3Z3_341_VCEVDNELR (UniProt Q9Y3Z3)”: the “probe-labelled cysteine peptide fold change” value by setting is: (10 µM) 0.395; (50 µM) 0.15.
The corresponding values for “SACS_Q9NZJ4_1846_LGLVPCGAVGVQLSEIQDQK (UniProt Q9NZJ4)” are 0.165 and 0.146.
